Usually AC50 stands for the midpoint of the concentration-response curve, whichever way the signal moves.

For 55 molecules, AC50 results are on record in PubChem BioAssay AID1487 (National Center for Advancing Translational Sciences (NCATS), 2009).

This assay can be described thus: qHTS Assay for Modulators of Lamin A Splicing. Conditions: HeLa LMNA splicing GFP/RFP minigene ratio, 48 h. In outline:
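S3 HeLa stable clones carrying a lamin A-EGFP splicing minigene plus DsRed2 were seeded at 600 cells/well in Opti-MEM with 2% FBS, pin-dosed and incubated 48 h at 37°C. Acumen cytometry (488 nm) gave the GFP/RFP total-intensity ratio.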
In general terms: Quantitative high-throughput screening tests each substance at several concentrations.

Where [1] appears, read: measured here: RFP viability control channel.
[2] abbreviates: measured here: GFP splicing reporter channel.

Each structure is given as a SMILES string. Some of the results follow. The main result of the screen is listed elsewhere. These columns were measured beside it and carry no call. The list favours compounds with an active or inconclusive main result. The note in brackets gives the kind of curve behind each potency; many fits are weak.

Regarding `COc1ccc(CCNC(=O)c2ccc(-n3c(C)cc4c3CCCC4)cc2)cc1OC`, the AC50 under setting [1] was 0.891 µM [rising, full curve, poor fit]. For the molecule `COc1ccc(-c2noc(CCC(=O)NCc3cc(Br)ccc3OC)n2)cc1`, the AC50 reads like this: under setting [2], 20 µM [rising, partial curve, poor fit]; under setting [1], 28.2 µM [rising, single point]. Consider `CNS(=O)(=O)c1ccc(N2CCCC2)c([N+](=O)[O-])c1`, for which, under setting [1], the AC50 was 0.0316 µM [falling, full curve, poor fit].

Turning to `O=C1CCCC(=O)C1=Cc1c[nH]c2ccccc12`, under setting [1], the AC50 was 0.355 µM [falling, full curve, poor fit]. Consider `Cc1[nH]n(-c2ccccc2)c(=O)c1/C=N/N1C(=O)c2cccc3cccc(c23)C1=O`, for which the AC50 is 0.0398 µM [rising, full curve, poor fit] under setting [2] and 0.708 µM [rising, single point] under setting [1]. Consider `C=CCN(c1ccccc1Cl)S(=O)(=O)c1cccc(C(=O)NCCc2ccc(OC)cc2)c1`, for which the AC50 under setting [1] is 15.8 µM [rising, single point].

Regarding `COc1ccc(/C=C2\SC(=O)N(CCC(=O)Nc3ccccc3)C2=O)cc1OC`, under setting [2], the AC50 was 0.0794 µM [rising, single point]. As for `Cc1cccc(NC(=S)NC2CCCCCC2)c1C`, under setting [1], the half-maximal activity concentration (AC50) is 35.5 µM [rising, single point]. Regarding `COc1ccccc1/C=C(/C(=O)OCC(=O)NCc1ccccc1)c1ccccc1`, the AC50 was 25.1 µM [rising, partial curve, poor fit] under setting [2] and 22.4 µM [rising, partial curve] under setting [1].

Regarding `CCn1c(CN2CCCCC2)nc2cc(NC(=O)c3ccccc3[N+](=O)[O-])ccc21`, the AC50 is, setting by setting: under setting [2], 14.1 µM [falling, partial curve, poor fit]; under setting [1], 0.0178 µM [falling, full curve, poor fit].

For the molecule `CSc1ncc(C(=O)NCc2ccc(Cl)cc2)c(C(F)(F)F)n1`, the AC50 under setting [2] is 11.2 µM [rising, partial curve]. For the molecule `CCOC(=O)C1C(=O)C=C(c2ccc(C)cc2)CC1c1ccccc1` (centres undefined), under setting [2], the AC50 was 3.55 µM [falling, partial curve]. On the same count and under the same terms, for `COc1ccc(-n2ccnc2)cc1` the value was 12.6 µM [rising, partial curve, poor fit]. Consider `C=CCn1c(=NC(=O)c2ccc(S(=O)(=O)N3CCCc4ccccc43)cc2)sc2cc(S(N)(=O)=O)ccc21`, for which the AC50 under setting [1] was 2.82 µM [falling, full curve, poor fit]. As for `S=C(Nc1ccccc1)Nc1nccs1`, the AC50 was 4.47 µM [falling, full curve] under setting [2] and 3.55 µM [falling, full curve] under setting [1]. As for `CCOc1ccc(C(=O)Nc2ccc(C(=O)OCc3cc(=O)n4ccsc4n3)cc2)cc1`, the AC50 under setting [1] was 0.0891 µM [falling, full curve, poor fit].

`CCOC(=O)c1sc(C)c2c1NC(c1ccc(N(C)C)cc1)NC2=O` (centres undefined): the AC50 reads like this: under setting [2], 6.31 µM [rising, partial curve]; under setting [1], 14.1 µM [rising, partial curve]. `COc1ccc(S(=O)(=O)NCC2CCC(C(=O)NCc3ccco3)CC2)cc1` (centres undefined): the AC50 under setting [2] was 35.5 µM [falling, single point]. `CCc1c(C)c(C#N)c2nc3ccccc3n2c1Cl`: under setting [1], the AC50 is 15.8 µM [rising, single point]. On the same count and under the same terms, to `Cc1ccc(-c2nn3c(C)nnc3c3ccccc23)cc1S(=O)(=O)N(C)CCO` belongs 12.6 µM [rising, partial curve]. Regarding `COc1ccccc1CNc1nc(-c2cccnc2)nc2ccccc12`, the AC50 is 22.4 µM [falling, single point] under setting [2] and 31.6 µM [falling, single point] under setting [1]. Consider `CCc1ccc(C(=O)COC(=O)c2cc([N+](=O)[O-])ccc2NCCO)cc1`, for which the AC50 runs as follows: under setting [2], 15.8 µM [rising, single point]; under setting [1], 31.6 µM [rising, single point].

Regarding `CN1CSC2=C(C#N)C(c3cccc(OCc4ccccc4)c3)CC(=O)N2C1` (centres undefined), the AC50 under setting [1] was 31.6 µM [rising, single point]. For the molecule `CN1C(=O)c2c(sc3c2CC(C)(C)SC3)N2CCN=C12`, the AC50 under setting [1] is 14.1 µM [rising, single point]. Consider `COc1cccc(N2CCN(C(=O)c3cc4c(=O)n(Cc5cccs5)ccc4nc3C)CC2)c1`, for which, under setting [2], the AC50 is 0.02 µM [falling, full curve, poor fit].

Take `CC(C)NC(=S)N/N=C1\CCCCC1C1CCCCC1` (centres undefined): the AC50 under setting [2] is 11.2 µM [rising, single point] and the AC50 under setting [1] was 15.8 µM [rising, single point]. For the molecule `CCN(CC)CCn1c2c(c(SCC(=O)Nc3cccc(C(F)(F)F)c3)nc1=O)CCC2`, under setting [2], the AC50 is 0.794 µM [falling, full curve, poor fit].

For `Cc1cccc(CNC(=O)Cc2ccc(NC(=O)N3CCCCc4ccccc43)cc2)c1`, the AC50 under setting [1] was 0.112 µM [falling, full curve, poor fit].

As for `CCOC(=O)c1[nH]c(C)c(CCC(=O)NC(C)c2ccccc2)c1C` (centres undefined), under setting [2], the AC50 is 0.794 µM [rising, full curve, poor fit].

In the case of `Cc1ccc(Cl)c(NC(=O)CCl)c1Cl`, the AC50 under setting [2] is 12.6 µM [rising, partial curve] and the AC50 under setting [1] was 35.5 µM [rising, single point]. As to `CCCCNC(=O)C(Sc1ccccc1)c1ccccc1` (centres undefined), the AC50 under setting [2] is 11.2 µM [rising, partial curve] and the AC50 under setting [1] was 11.2 µM [rising, partial curve]. For `CCOC(=O)c1c(C)[nH]c(C(=O)CN2C(=O)C(=O)N(CC(C)C)C2=O)c1C`, the AC50 under setting [1] was 28.2 µM [rising, partial curve]. For `CC(=O)C1=C(C)NC(SCc2ccc(C#N)cc2)=C(C#N)C1c1ccco1` (centres undefined), the AC50 under setting [2] is 20 µM [rising, partial curve, poor fit] and the AC50 under setting [1] is 1.58 µM [rising, partial curve, poor fit].

For `Cc1ccc(N(C)C(=O)Cn2cc(S(=O)(=O)N3CCCC3)c(S(=O)(=O)N3CCCC3)c2)cc1`, the AC50 under setting [1] was 0.0178 µM [falling, full curve, poor fit]. As to `Cc1ccc(C(=O)CSc2cnc3ccccc3n2)cc1C`, the AC50 is 12.6 µM [rising, partial curve] under setting [2] and 22.4 µM [rising, partial curve] under setting [1].

Take `Cc1ccc(-c2nnc(CSc3nnc(COc4ccccc4)n3-c3ccccc3)o2)cc1`: the AC50 was 11.2 µM [rising, partial curve] under setting [2] and 20 µM [rising, single point] under setting [1]. As for `COc1ccc(CCN2C(=O)NC(NC(=O)CCc3ccccc3)(C(F)(F)F)C2=O)cc1OC` (centres undefined), the AC50 under setting [1] is 1.58 µM [rising, full curve]. As to `Cc1ccc(S(=O)(=O)N(CC(=O)N2CCN(c3ccccc3F)CC2)C2CCCCC2)cc1`, the AC50 under setting [2] was 20 µM [rising, single point] and the AC50 under setting [1] is 31.6 µM [rising, single point]. As to `Cc1onc(-c2c(F)cccc2Cl)c1C(=O)OCC(=O)c1c(N)n(C)c(=O)n(C)c1=O`, under setting [1], the AC50 is 35.5 µM [rising, single point].

As for `COc1ccc(NS(=O)(=O)c2ccc3c(c2)CC(C)N3C(C)=O)c(OC)c1` (centres undefined), the AC50 under setting [1] is 0.0398 µM [falling, full curve, poor fit]. Take `CCOC(=O)C1=C(CN2CCN(c3cccc(OC)c3)CC2)NC(=O)NC1c1ccc(OC)cc1` (centres undefined): the AC50 is, setting by setting: under setting [2], 15.8 µM [falling, partial curve, poor fit]; under setting [1], 35.5 µM [falling, partial curve, poor fit]. Consider `O=C(CN(C(=O)c1ccccc1Cl)N1C(=O)C2C3C=CC(C3)C2C1=O)c1cccs1` (centres undefined), for which the AC50 under setting [1] was 0.00355 µM [rising, full curve, poor fit]. On the same count and under the same terms, for `CCOc1ccc(NC(=O)CSc2nc(C)cc(C)n2)cc1` the value was 35.5 µM [rising, single point]. Consider `O=C(NC1CCCCC1)c1ccc(CNc2ccccc2)o1`, for which the AC50 by setting is: under setting [2], 7.94 µM [rising, partial curve, poor fit]; under setting [1], 7.94 µM [rising, partial curve, poor fit]. As to `CCCC(=NCCc1c(C)[nH]c2ccccc12)C1=C(O)CC(c2ccccc2)CC1=O` (centres undefined), the AC50 under setting [1] was 3.98 µM [rising, partial curve, poor fit]. On to `O=C(C1CCN(C2CCN(Cc3ccc4cc(F)ccc4n3)CC2)CC1)N1CCCC1`, for which the AC50 under setting [2] is 14.1 µM [falling, single point]. In the case of `CSc1ccc(C(=O)c2[nH]c(=O)[nH]c2C)cc1`, under setting [2], the AC50 is 1.41 µM [rising, full curve, poor fit]. With `CCOC(=O)c1cc(-c2ccccc2)n(CCC(=O)Nc2ccc(C)cc2Cl)c1C`, the AC50 under setting [1] is 0.0891 µM [falling, full curve, poor fit]. For `CC1CCCCN1c1nc(-c2ccncc2)nc2ccccc12` (centres undefined), the AC50 by setting is: under setting [2], 7.94 µM [falling, partial curve]; under setting [1], 15.8 µM [falling, partial curve].

As to `CCCc1ccc(-c2csc(NC(=O)Cc3cccs3)n2)cc1`, the AC50 under setting [1] was 14.1 µM [rising, partial curve, poor fit].

For the molecule `O=C(Nc1ccc(F)cc1F)c1csc(-c2ccccc2)n1`, the AC50 under setting [1] is 8.91 µM [falling, partial curve, poor fit]. For `O=C(c1ccccc1)N1CCOC12CCN(c1ncc(C(F)(F)F)cc1Cl)CC2`, under setting [1], the AC50 was 35.5 µM [rising, single point]. For `COc1cc(-c2n[nH]c(=S)n2-c2cc(C(F)(F)F)ccc2Cl)cc(OC)c1OC`, the AC50 under setting [1] is 22.4 µM [rising, partial curve, poor fit].

As to `Cc1cc(C)nc(NC2=NCCN2C(=S)Nc2c(C)cccc2C)n1`, under setting [2], the AC50 is 0.0251 µM [falling, full curve, poor fit]. In the case of `Cc1ccc(Cl)cc1N(Cc1ccc(C(=O)NCc2cccnc2)cc1)S(=O)(=O)c1ccccc1`, the AC50 is 35.5 µM [rising, single point] under setting [2] and 35.5 µM [rising, single point] under setting [1].
